From publication PMC5226578
No constants are given. Whether binding was seen depends on the method and setting. In cells and extracts the contact can be indirect. Some entries that bind do so weakly or less than the wild type.

By UniProt entry, the sequences of proteins in these tests, tags left out. Where a name states a change or a piece, a line headed by the entry shows the natural chain unless it says otherwise.
UniProt P38936: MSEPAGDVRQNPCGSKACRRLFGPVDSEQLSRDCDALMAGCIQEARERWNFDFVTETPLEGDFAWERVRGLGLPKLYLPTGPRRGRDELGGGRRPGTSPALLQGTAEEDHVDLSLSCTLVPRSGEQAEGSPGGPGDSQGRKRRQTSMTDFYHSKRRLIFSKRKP
UniProt P06493: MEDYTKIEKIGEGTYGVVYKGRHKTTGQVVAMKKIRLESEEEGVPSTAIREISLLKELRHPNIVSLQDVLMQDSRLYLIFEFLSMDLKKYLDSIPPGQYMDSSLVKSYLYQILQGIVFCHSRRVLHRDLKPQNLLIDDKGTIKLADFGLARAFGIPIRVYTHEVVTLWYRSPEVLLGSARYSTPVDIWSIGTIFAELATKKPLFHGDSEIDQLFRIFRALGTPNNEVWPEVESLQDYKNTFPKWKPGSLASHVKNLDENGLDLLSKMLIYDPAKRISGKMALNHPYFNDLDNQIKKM
UniProt P14635: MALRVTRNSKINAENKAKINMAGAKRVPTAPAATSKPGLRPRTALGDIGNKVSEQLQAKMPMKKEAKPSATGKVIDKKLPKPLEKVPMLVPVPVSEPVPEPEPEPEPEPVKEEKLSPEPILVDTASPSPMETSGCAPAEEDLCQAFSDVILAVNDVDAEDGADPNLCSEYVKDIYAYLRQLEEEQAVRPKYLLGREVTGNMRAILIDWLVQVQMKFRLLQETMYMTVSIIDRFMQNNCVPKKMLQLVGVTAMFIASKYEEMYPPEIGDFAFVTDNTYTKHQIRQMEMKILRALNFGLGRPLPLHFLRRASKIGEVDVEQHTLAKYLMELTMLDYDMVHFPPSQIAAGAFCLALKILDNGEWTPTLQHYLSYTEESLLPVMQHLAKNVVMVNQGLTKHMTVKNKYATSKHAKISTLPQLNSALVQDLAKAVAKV

Legend:
GST-p21S130A (human) = GST-p21S130A (human) (UniProt P38936); test: pull-down; GST fusion proteins and Glutathione Sepharose beads incubated with cell extracts of nocodazole synchronized HCT116 p21−/− cells; binding buffer with 10% glycerol and 0.1% NP-40 in PBS; blots for Cdk1 and cyclin B1; only the target purified
[1] = biological target: FLAG-p21S130A (in HeLa cells) (human) (UniProt P38936); test: co-IP; extracts of transfected, nocodazole synchronized HeLa cells, immunoprecipitated with FLAG M2 beads; precipitate used for an ex vivo kinase assay with 32P-ATP without added kinase; cyclin B1 indicated in the autoradiogram
[2] = biological target: wild type FLAG-p21 (in HeLa cells) (human) (UniProt P38936); test: as above
[3] = biological target: Cdk1/cyclin B1 (endogenous, mitotic HCT116 p21−/− cells) (human (endogenous in HCT116)) (UniProt P06493+P14635); test: co-IP; nuclear extracts of transfected, nocodazole synchronized HCT116 p21−/− cells, immunoprecipitated with cyclin B1 antibody; expression levels of FLAG-p21 and mutants adjusted to be comparable

Substance | binding [3] | further results
Cdk1/cyclin B1 (endogenous, mitotic HCT116 p21−/− cells) (from UniProt P06493 1-297; P14635 1-433) (complex) | – | binding (GST-p21S130A (human)): binds
Cdk1/cyclin B1 (endogenous, mitotic HeLa cells) (from UniProt P06493 1-297; P14635 1-433) (complex) | – | binding [1]: binds; binding [2]: binds
FLAG-p21S130A (in HCT116 p21−/− cells) (from UniProt P38936 1-164) | binds | –

Second part, led by results:

binding [3] | Substance | further results
binds | FLAG-p21S130D (in HCT116 p21−/− cells) (from UniProt P38936 1-164) | –
binds | wild type FLAG-p21 (in HCT116 p21−/− cells) (from UniProt P38936 1-164) | –
